Results from patent publication EP2990415B1, “Cyclic beta defensins analogs for the treatment of infections” (Ceinge Biotecnologie Avanzate S.C. a R.L., priority 2014, dated 2016).
Not every detail of the peptide structures is certain; ends, links or a residue may be inferred. Bridge positions count the residues as written; N and C are the ends. Peptide text beside a SMILES is read from it.

Tested on: HSV-1
Experiment: Inhibition of HSV infectivity on Vero cell monolayers (co-exposure, virus pre-exposure, cell pre-exposure, post-exposure)
Format: cell-based
Details: for reduction of virus infectivity: 150 µM
Method: Vero cells were grown in Dulbecco's modified Eagle's medium (DMEM) supplemented with 10% fetal calf serum. HSV-1 carrying a lacZ gene driven by the cytomegalovirus (CMV) IE-1 promoter to express beta-galactosidase was propagated as described elsewhere (Galdiero S, Falanga A, Vitiello M, D'Isanto M, Cantisani M, Kampanaraki A, Benedetti E, Browne H, Galdiero M. Peptides. 2008 Sep;29(9):1461-71). All experiments were conducted in parallel with no-peptide controls. […] Non-penetrated viruses were inactivated by citrate buffer at pH 3.0. Monolayers were fixed, stained with 5-bromo-4-chloro-3-indolyl-beta-D-galactopyranoside (X-gal) and plaque numbers were scored. Experiments were performed in triplicate and the percentage of inhibition was calculated with respect to no-peptide control experiments; ii) For "virus pre-exposure" experiments, […] monolayers; iii) For "cell pre-exposure" experiments, Vero cells were incubated with 20 µM of peptides for 30 min at 4°C and infected with serial dilutions of HSV-1 for 45 min at 37°C; and iv) For "post-exposure" experiments, Vero cell monolayers were incubated with virus for 45 minutes at 37°C and afterwards the peptide was added to the inoculum followed by an additional incubation period of 30 minutes at 37°C.
The antiviral activity was evaluated in co-exposure experiments (with cell, virus, and peptide at zero time), virus pre-exposure experiments (virus plus peptide before cell infection), cell pre-exposure experiments (cell plus peptide before virus infection) and post-treatment (cell plus virus before peptide addition) in order to evaluate in which phase, if any, the peptides could inhibit virus infectivity. […] Both in the co-exposure and virus pre-treatment experiments, the oxidized SEQ. […]

[1] = Cell Pre-treatment at 4°C, 1 uM
[2] = Cell Pre-treatment at 4°C, 5 uM
[3] = Cell Pre-treatment at 4°C, 10 uM
[4] = Cell Pre-treatment at 4°C, 20 uM
[5] = Cell Pre-treatment at 4°C, 50 uM
[6] = Cell Pre-treatment at 4°C, 150 uM
[7] = Cell Pre-treatment at 4°C, 1000 uM
[8] = Virus Pre-treatment at 37°C, 1 uM
[9] = Virus Pre-treatment at 37°C, 5 uM
[10] = Virus Pre-treatment at 37°C, 10 uM
[11] = Virus Pre-treatment at 37°C, 20 uM
[12] = Virus Pre-treatment at 37°C, 50 uM
[13] = Virus Pre-treatment at 37°C, 150 uM
[14] = Virus Pre-treatment at 37°C, 1000 uM

Row | SMILES | Peptide inhibition [1] | Peptide inhibition [2] | Peptide inhibition [3] | Peptide inhibition [4] | Peptide inhibition [5] | Peptide inhibition [6] | Peptide inhibition [7] | Peptide inhibition (Co-treatment at 37°C, 1 uM) | Peptide inhibition (Co-treatment at 37°C, 5 uM) | Peptide inhibition (Co-treatment at 37°C, 10 uM) | Peptide inhibition (Co-treatment at 37°C, 20 uM) | Peptide inhibition (Co-treatment at 37°C, 50 uM) | Peptide inhibition (Co-treatment at 37°C, 150 uM) | Peptide inhibition (Co-treatment at 37°C, 1000 uM) | Peptide inhibition [8] | Peptide inhibition [9] | Peptide inhibition [10] | Peptide inhibition [11] | Peptide inhibition [12] | Peptide inhibition [13] | also measured
1 | CC[C@H](C)[C@@H]1NC(=O)[C@H](CCCCN)NC(=O)[C@H]([C@@H](C)O)NC(=O)[C@H](Cc2ccccc2)NC(=O)[C@H]([C@@H](C)CC)NC(=O)[C@@H]2CCCN2C(=O)[C@@H](N)CSSC[C@@H](C(=O)NCC(=O)NCC(=O)N[C@@H](CCCNC(=N)N)C(=O)N[C@@H](CCCNC(=N)N)C(=O)N[C@@H](CCCCN)C(=O)N[C@@H](CCCCN)C(N)=O)NC(=O)[C@H]([C@@H](C)O)NC(=O)CNC(=O)[C@H](CCC(N)=O)NC1=O [SEQ ID No. 25] (H-CPIFTKIQGTCGGRRKK-NH2; disulfide 1-11) | 100 | 76 | 74 | 71 | 69 | 65 | 67 | 81 | 76 | 74 | 62 | 60 | 40 | 43 | 100 | 72 | 58 | 45 | 44 | 41 | Peptide inhibition [14]: 42; reduction of infectivity (cell-pre-treatment experiment): 30%; reduction of virus infectivity (co-exposure experiment): 60%; effect on virus infectivity (post-treatment experiment (cell plus virus before peptide addition)): no effect; reduction of virus infectivity (virus pre-treatment experiment): 60%
2 | CC[C@H](C)[C@@H]1NC(=O)[C@H](CCC(N)=O)NC(=O)[C@H](CCC(=O)O)NC(=O)[C@H](CCC(=O)O)NC(=O)[C@H](CCCCN)NC(=O)[C@@H]2CCCN2C(=O)[C@H](CC(C)C)NC(=O)[C@@H](NC(C)=O)CSSC[C@@H](C(=O)N[C@@H](CCCNC(=N)N)C(=O)N[C@@H](CCCNC(=N)N)C(=O)N[C@@H](CCCCN)C(=O)N[C@@H](CCCCN)C(N)=O)NC(=O)[C@H](CO)NC(=O)[C@H](CCCCN)NC(=O)[C@H](CCCNC(=N)N)NC(=O)CNC(=O)[C@H](CCCNC(=N)N)NC(=O)[C@H]([C@@H](C)O)NC(=O)[C@H](CO)NC(=O)[C@H](CO)NC(=O)[C@H](CCCCN)NC(=O)CNC1=O [SEQ ID No. 1] (Ac-CLPKEEQIGKSSTRGRKSCRRKK-NH2; disulfide 1-19) | – | – | – | – | – | – | – | – | – | – | – | – | – | – | – | – | – | – | – | – | Residual Viral Infectivity (% of control) [1]: 85 % of control; Residual Viral Infectivity (% of control) [2]: 83 % of control; Residual Viral Infectivity (% of control) [3]: 81 % of control; Residual Viral Infectivity (% of control) [4]: 69 % of control; Residual Viral Infectivity (% of control) [5]: 58 % of control; Residual Viral Infectivity (% of control) (Cell Pre-treatment at 4°C, 100 uM): 48 % of control; Residual Viral Infectivity (% of control) [6]: 32 % of control; Residual Viral Infectivity (% of control) (Co-treatment at 37°C, 1 uM): 79 % of control; Residual Viral Infectivity (% of control) (Co-treatment at 37°C, 10 uM): 72 % of control; Residual Viral Infectivity (% of control) (Co-treatment at 37°C, 20 uM): 66 % of control; Residual Viral Infectivity (% of control) (Co-treatment at 37°C, 50 uM): 58 % of control; Residual Viral Infectivity (% of control) (Co-treatment at 37°C, 100 uM): 54 % of control; Residual Viral Infectivity (% of control) (Co-treatment at 37°C, 150 uM): 32 % of control; Residual Viral Infectivity (% of control) [8]: 57 % of control; Residual Viral Infectivity (% of control) [9]: 54 % of control; Residual Viral Infectivity (% of control) [10]: 52 % of control; Residual Viral Infectivity (% of control) [11]: 49 % of control; Residual Viral Infectivity (% of control) [12]: 44 % of control; Residual Viral Infectivity (% of control) (Virus Pre-treatment at 37°C, 100 uM): 37 % of control; Residual Viral Infectivity (% of control) [13]: 22 % of control
3 | CC[C@H](C)[C@H](NC(=O)[C@H](CCCCN)NC(=O)[C@@H](NC(=O)[C@H](Cc1ccccc1)NC(=O)[C@@H](NC(=O)[C@@H]1CCCN1C(=O)[C@@H](N)CS)[C@@H](C)CC)[C@@H](C)O)C(=O)N[C@@H](CCC(N)=O)C(=O)NCC(=O)N[C@H](C(=O)N[C@@H](CS)C(=O)NCC(=O)NCC(=O)N[C@@H](CCCNC(=N)N)C(=O)N[C@@H](CCCNC(=N)N)C(=O)N[C@@H](CCCCN)C(=O)N[C@@H](CCCCN)C(N)=O)[C@@H](C)O [SEQ.ID. No 25 red] (H-CPIFTKIQGTCGGRRKK-NH2) | 99 | 98 | 95 | 91 | 89 | 85 | 87 | 99 | 98 | 95 | 79 | 77 | 60 | 67 | 99 | 98 | 95 | 91 | 80 | 70 | Peptide inhibition [14]: 77; antiviral activity of reduced versus oxidized form (all treatments): always less active than the oxidized version
